“Also recorded” adds a separate entry of the source. At least one peptide structure holds a part that was inferred or is arguable (an end, a ring closure or a residue). Some entries repeat one wording, which the source may state once for all of them. Where a SMILES comes first, the peptide text is derived from it. Bridges are numbered along the chain shown (N, C = ends). [ ]: non-standard residue; d: D form. Pen = CC(C)(S)[C@H](N)C(=O)O
Assays:
α5 β1 (FnR) = target: T1, α5 β1 (FnR) (Homo sapiens, UniProt P05556+P08648); experiment: α5 β1 ELISA (competitive); format: binding; settings: comparison of ELISA values, FIG. 2
T1 construct: Fibronectin receptor (FnR) was purified from 100 mM octyl-glucopyranoside-extracted human placenta; from tissue; host or cells: human placenta, octylglucoside extract

αV β3 integrin receptor = experiment: Series of in vitro assays of Example II for potency and selectivity (FIG. 2); settings: summary of assays
Text: Such peptides can include, for example, peptides within the pharmacophore groups exemplified herein or peptides within other pharmacophore groups. […] The selectivity of a peptide for an integrin receptor involved in osteoclast binding to bone can be determined, for example, using the integrin receptor assays and cell attachment and detachment assays described herein.
Comparison of the IC50 values generated using the JY cell assay and the αV β3 ELISA, which measure binding of the αV β3 receptor involved in osteoclast binding to bone, with the αV β5 and α5 β1 receptor-specific ELISAs, which represent receptors that likely are not involved in osteoclast attachment, provides insight into the receptor selectivity of the peptides.

αV β3 receptor = target: T2, αV β3 receptor (Homo sapiens, UniProt P05106+P06756); experiment: αV β3 ELISA (competitive); format: binding; settings: comparison of ELISA IC50 values, FIG. 2
T2 construct: The αV β3 receptor was purified from octyl-glucopyranoside-extracted human placenta; from tissue; host or cells: human placenta, octylglucoside extract

SMILES	selectivity toward α5 β1 versus αV β5 (α5 β1 (FnR))	receptor selectivity classification (αV β3 integrin receptor)	receptor selectivity for αV β3 compared to αV β5 and α5 β1 binding (αV β3 receptor)
C[C@H](NC(=O)[C@@H]1CSSC(C)(C)[C@H](NC(=O)CN)C(=O)N[C@@H](CCCNC(=N)N)C(=O)N[C@@H](C)C(=O)N[C@@H](CCCNC(=N)N)C(=O)NCC(=O)N[C@@H](CC(=O)O)C(=O)N[C@@H](CC(N)=O)C(=O)N2CCC[C@H]2C(=O)N1)C(=O)O [compound 100] (H-G[Pen]RARGDNPCA-OH; disulfide 2-10)	more selective toward α5 β1 than toward αV β5	–	–
C[C@H](NC(=O)[C@@H]1CSSC(C)(C)[C@H](NC(=O)CN)C(=O)N[C@@H](C)C(=O)N[C@@H](C)C(=O)N[C@@H](CCCNC(=N)N)C(=O)NCC(=O)N[C@@H](CC(=O)O)C(=O)N[C@@H](CC(N)=O)C(=O)N2CCC[C@H]2C(=O)N1)C(=O)O [compound 310] (H-G[Pen]AARGDNPCA-OH; disulfide 2-10)	more selective toward α5 β1 than toward αV β5	–	–
C[C@@H]1NC(=O)[C@H](CCCNC(=N)N)NC(=O)CNC(=O)CC[C@@H](C(N)=O)NC(=O)[C@@H]2CCCN2C(=O)[C@H](CC(N)=O)NC(=O)[C@H](CC(=O)O)NC(=O)CNC(=O)[C@H](CCCNC(=N)N)NC1=O [compound 390] (GRARGDNPE-NH2; lactam N-9)	more selective toward α5 β1 than toward αV β5	–	–
CC(C)[C@@H]1NC(=O)[C@H](CC(=O)O)NC(=O)[C@H](CC(=O)O)NC(=O)CNC(=O)[C@H](CCCNC(=N)N)NC(=O)[C@H](C)NC(=O)[C@H](C)NC(=O)[C@@H](NC(=O)CN)C(C)(C)SSC[C@@H](C(=O)N[C@@H](C)C(N)=O)NC1=O [compound 814] (H-G[Pen]AARGDDVCA-NH2; disulfide 2-10)	–	particularly receptor selective	receptor selective for αV β3
N=C(N)NCCC[C@@H]1NC(=O)CC[C@@H](C(N)=O)NC(=O)[C@@H]2CCCN2C(=O)[C@H](CO)NC(=O)[C@H](CC(=O)O)NC(=O)CNC1=O [compound 825] (RGDSPE-NH2; lactam N-6)	more selective toward α5 β1 than toward αV β5	–	–
CC(C)[C@@H]1NC(=O)[C@H](CC(=O)O)NC(=O)[C@H](CC(=O)O)NC(=O)CNC(=O)[C@H](CCCNC(=N)N)NC(=O)CNC(=O)C[C@@H](C(N)=O)NC1=O [peptide 368] (GRGDDVD-NH2; lactam N-7)	–	particularly receptor selective	receptor selective for αV β3; also recorded: selective peptide

Source: patent publication US5807819A, “Peptides useful for altering bone resorption” (priority 1995, dated 1998)
